Paper PMC8492323
No constants are given. Whether binding was seen depends on the method and setting. Binding seen in cells or lysates may run through a third protein. Some binding calls cover weakened binding; strength is not graded here. For part of these data: Where a sequence is shown, tags or fusion partners need not be part of it.

Chains of the proteins cited; added tags and fusions are not shown.
UniProt Q80XI6: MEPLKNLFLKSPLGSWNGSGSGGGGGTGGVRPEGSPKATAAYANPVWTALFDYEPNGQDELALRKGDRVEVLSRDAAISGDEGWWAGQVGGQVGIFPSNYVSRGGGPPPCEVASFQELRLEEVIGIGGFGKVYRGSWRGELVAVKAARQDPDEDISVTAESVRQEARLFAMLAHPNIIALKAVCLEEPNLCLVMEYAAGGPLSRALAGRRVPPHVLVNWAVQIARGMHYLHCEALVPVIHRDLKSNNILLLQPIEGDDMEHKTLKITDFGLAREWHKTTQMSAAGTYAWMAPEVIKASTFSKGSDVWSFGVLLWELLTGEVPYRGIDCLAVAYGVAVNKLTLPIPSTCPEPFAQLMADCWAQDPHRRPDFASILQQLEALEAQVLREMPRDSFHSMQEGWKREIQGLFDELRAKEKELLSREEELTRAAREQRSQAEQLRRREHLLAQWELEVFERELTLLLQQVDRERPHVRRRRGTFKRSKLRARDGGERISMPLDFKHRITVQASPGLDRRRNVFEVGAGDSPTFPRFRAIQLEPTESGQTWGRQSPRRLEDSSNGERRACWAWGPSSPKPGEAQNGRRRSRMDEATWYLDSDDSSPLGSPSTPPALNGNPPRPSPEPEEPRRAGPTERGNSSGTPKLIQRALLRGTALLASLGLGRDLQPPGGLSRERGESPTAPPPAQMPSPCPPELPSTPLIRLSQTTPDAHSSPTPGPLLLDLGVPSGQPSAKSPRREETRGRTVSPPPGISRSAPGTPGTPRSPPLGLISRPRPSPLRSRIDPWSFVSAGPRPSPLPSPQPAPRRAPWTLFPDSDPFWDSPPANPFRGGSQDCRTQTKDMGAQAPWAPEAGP

Legend:
[1] = target: T1, GST-PKG1α LZ domain, amino acids 1-59 (WT) (UniProt Q13976); assay: pull-down; GST fusion protein beads rocked overnight at 4°C with mouse LV lysate, washed 3 times in lysis buffer, Western blot for MLK3; only the target purified
T1 sequence: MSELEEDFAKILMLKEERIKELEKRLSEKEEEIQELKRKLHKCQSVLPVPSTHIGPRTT

[2] = target: T2, GST-PKG1α amino acids 1-236 (WT) (UniProt Q13976); assay: as above
T2 sequence: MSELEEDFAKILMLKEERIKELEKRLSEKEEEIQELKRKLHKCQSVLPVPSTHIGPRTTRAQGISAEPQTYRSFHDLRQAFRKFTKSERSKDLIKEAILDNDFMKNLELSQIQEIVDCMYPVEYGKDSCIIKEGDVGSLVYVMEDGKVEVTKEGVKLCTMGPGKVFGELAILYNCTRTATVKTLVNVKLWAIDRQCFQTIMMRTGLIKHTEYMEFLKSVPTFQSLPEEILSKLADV

[3] = target: mixed lineage kinase 3 (MLK3), endogenous in mouse left ventricle lysate (mouse (endogenous in LV tissue)) (UniProt Q80XI6); assay: co-IP; 1 mg mouse LV lysate in 1X Cell Lysis Buffer, precleared, 4 ug anti-MLK3 antibody (sc-166639) overnight at 4°C, Protein G beads, 4 washes, blot for PKG1α; LV of WT mice, and of mice after sham surgery vs 7-day transaortic constriction (TAC)

“mixed lineage kinase 3 (MLK3), endogenous in mouse left ventricle lysate (from UniProt Q80XI6 1-850)” was tested, and the binding [1] was “binds” and the binding [2] was “binds”.

B1: cGMP-dependent protein kinase 1α (PKG1α), endogenous in mouse left ventricle lysate (protein, UniProt P0C605 1-671)
chain: MSELEEDFAKILMLKEERIKELEKRLSEKEEEIQELKRKLHKCQSVLPVPSTHIGPRTTRAQGISAEPQTYRSFHDLRQAFRKFTKSERSKDLIKEAILDNDFMKNLELSQIQEIVDCMYPVEYGKDSCIIKEGDVGSLVYVMEDGKVEVTKEGVKLCTMGPGKVFGELAILYNCTRTATVKTLVNVKLWAIDRQCFQTIMMRTGLIKHTEYMEFLKSVPTFQSLPDEILSKLADVLEETHYENGEYIIRQGARGDTFFIISKGQVNVTREDSPSEDPVFLRTLGKGDWFGEKALQGEDVRTANVIAAEAVTCLVIDRDSFKHLIGGLDDVSNKAYEDAEAKAKYEAEAAFFANLKLSDFNIIDTLGVGGFGRVELVQLKSEESKTFAMKILKKRHIVDTRQQEHIRSEKQIMQGAHSDFIVRLYRTFKDSKYLYMLMEACLGGELWTILRDRGSFEDSTTRFYTACVVEAFAYLHSKGIIYRDLKPENLILDHRGYAKLVDFGFAKKIGFGKKTWTFCGTPEYVAPEIILNKGHDISADYWSLGILMYELLTGSPPFSGPDPMKTYNIILRGIDMIEFPKKIAKNAANLIKKLCRDNPSERLGNLKNGVKDIQKHKWFEGFNWEGLRKGTLTPPIIPSVASPTDTSNFDSFPEDSDEPPPDDNSGWDIDF
In the case of B1, the binding [3] is reported as “binds”.
